Experimental data published in US9670217B2, “Process for preparing chlorins and their pharmaceutical uses” (UNIVERSIDADE DE COIMBRA, priority 2008, dated 2017).
Where “and” joins values, the source holds several entries; their conditions need not be identical. Equal entries are not always repeated.

Columns and labels:
[1] = EPR spin trapping of photogenerated reactive oxygen species
[2] = Fluorescence detection limit in human serum; settings: excitation 514 nm

Compound	EPR detection of BMPO-hydroxyl radical adduct ([1]; 30-80 μM sensitizer, 40 mM BMPO, air-saturated aqueous solution, laser 4, 8, 16 minutes)	EPR detection of DMPO-superoxide adduct ([1]; DMPO in DMSO, air and light)	fluorescence detection limit [2]
O=S(=O)(O)c1ccc(Cl)c(-c2c3nc(c(-c4cc(S(=O)(=O)O)ccc4Cl)c4ccc([nH]4)c(-c4cc(S(=O)(=O)O)ccc4Cl)c4nc(c(-c5cc(S(=O)(=O)O)ccc5Cl)c5ccc2[nH]5)CC4)CC3)c1 [Luzitin-Cl, 5,10,15,20-tetrakis(2-chloro-5-sulfonylphenyl)bacteriochlorin]	detection of a BMPO adduct which is that formed between BMPO and the hydroxyl radical	detected the DMPO-superoxide adduct in the presence of air and light	
CCNS(=O)(=O)c1ccc(Cl)c(-c2c3nc(c(-c4c(Cl)ccc(S(=O)(=O)NCC)c4Cl)c4ccc([nH]4)c(-c4c(Cl)ccc(S(=O)(=O)NCC)c4Cl)c4nc(c(-c5c(Cl)ccc(S(=O)(=O)NCC)c5Cl)c5ccc2[nH]5)CC4)CC3)c1Cl [Luzitin-Cl2Et, 5,10,15,20-tetrakis(2,6-dichloro-3-N-ethylsulfamoylphenyl)bacteriochlorin]			0.17 nM and 0.2 ng/g
